# Assay results taken from patent publication US12274732B2, “Anti-pathogen composition and methods of use thereof” (Tenfold Technologies, LLC, priority 2017, dated 2025).
# Test system: Candida albicans
# Assay: In vitro antimicrobial activity against Candida albicans
# Assay type: cell-based
# Conditions: Table 12, lowest concentration that allows no detectable growth, read-out: C. albicans MIC (minimum inhibitory concentration)
# Experimental: Fifty organic extracts were prepared from 25 whole broth of four microbial strains (MS1479, MS2379, MS2820, and MS2414), which were fermented in different media for the antimicrobial testing. Note each whole broth culture generated one n-butanol extract from cultural supernatant and one methanol extract from cell pellets.
# The antimicrobial activities of the 50 organic extracts were studied against three fungal pathogens—Candida albicans, Aspergillus fumigatus, and Cryptococcus neoformans—and five bacterial strains-Methicillin-resistant Staphylococcus aureus (MIRSA), Escherichia coli, Pseudomonas aeruginosa, Klebsiella pneumoniae, and Vancomycin-resistant Enterococcus faecium (VRE) (FIG. 2). The test concentrations for all extracts were in the range of 8-200 μg/mL (Table 3).
# The antimicrobial activities of identified fusaricidins were in an in vitro study against several clinically relevant microbes. […] For the in-vitro assays against bacteria, fusaricidins were tested against methicillin-resistant Staphylococcus aureus, vancomycin-resistant Enterococcus faecium, Escherichia coli, and Pseudomonas aeruginosa using four antibacterial drugs methicillin, vancomycin, cefotaxime, and meropenem as controls. […]
structure (smiles),measurement,value
OC(Cn1cncn1)(Cn1cncn1)c1ccc(F)cc1F [Fluconazol],MIC,1.6 µg/mL
